# Screen size: about 400,000 compounds; about 5,500 (1.4%) were called active. The shares of active, inactive and inconclusive entries below differ from those in the screen. Calls come from the whole dose curve; as a rule, active = well fitted cell-killing curve with a large enough effect; inconclusive = small, poorly fitted or top-dose-only effect, or effect the other way; inactive = flat fitted curve, though single readings scatter. Potencies beside an inconclusive call are fits to weak or partial responses and may not hold up.
# Assay: qHTS assay for MDR1-selective chemotherapeutics: Primary screen using the parental adenocarcinoma cell KB-3-1; note: nearly all actives have a fitted effect of over 60% in size
# Conditions: KB-3-1 viability, CellTiter-Glo ATP luminescence, 72 h; activity change, negative = cytotoxic: at 46.1 µM (top of the series)
# Outline: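 Luminescent ATP read-out (CellTiter-Glo) measures survival of drug-naive KB-3-1 cells after 72 h compound exposure at 37 °C. Titration series was screened from lowest to highest concentration, with DMSO vehicle plates as background controls.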
# % is set by controls: 0 for no effect and ±100 for the full control effect; potency is the fitted concentration of half-maximal effect.
Structure (SMILES),Potency,"activity change, negative = cytotoxic"
O=C(Cn1ccccc1=O)Nc1ccc(Cl)c(S(=O)(=O)N2CCCCC2)c1,"inconclusive: 29.1 µM [cytotoxic, single point]",–
COc1ccc(C(CNC(=O)c2ccc(S(=O)(=O)N3CCCC3)cc2)N(C)C)cc1OC (stereo not drawn),inactive,–
NC(c1csc(NC(=O)Nc2cccc(C(F)(F)F)c2)n1)C1CCCCC1 (stereo not drawn),"inconclusive: 29.1 µM [cytotoxic, single point]",–
O=C1CC2(CCN(C(=O)COc3ccc(Cl)cc3)CC2)Oc2ccccc21,inactive,–
COc1ccc(NC(=O)C(=O)c2cc(C)n(-c3ccc(C)cc3)c2C)cc1Cl,"inconclusive: 18.4 µM [cytotoxic, partial curve, poor fit]",–
CN(c1ccc(OCC(=O)OCC(=O)Nc2ccccc2F)cc1)S(=O)(=O)c1cccs1,"inconclusive: 29.1 µM [rising, single point]",–
CCc1ccc(CNC(=O)c2ccc(NC(=O)N3CCSc4ncccc43)cc2)cc1,inactive,–
COc1ccc(-c2csc(NC(=O)c3ccc(OCC(=O)N4CCOCC4)c(OC)c3)n2)cc1,"inconclusive: 25.9 µM [cytotoxic, single point]",–
CN(C)CCNc1nc2sc3c(c2c(=O)n1CCc1ccccc1)CCCCC3,inactive,–
O=C(Nc1nnc(-c2ccco2)o1)c1ccc(S(=O)(=O)N2CCCCC2)cc1,"inconclusive: 18.4 µM [cytotoxic, single point]",–
CCOC(=O)c1cnc2nc(N3CCOCC3)nn2c1N,"inconclusive: 13 µM [rising, partial curve]",–
N#CC1=C(N)Oc2cc(N)ccc2C1c1cc(Br)cs1 (stereo not drawn),active: 8.2 µM,–
CCN1C(=O)CC(c2ccccc2)N(C2CCCC2)c2nc(Nc3ccc(C(=O)NC4CCN(C)CC4)cc3OC)ncc21 (stereo not drawn),active: 18.4 µM,–
CCn1cc(C(=O)NCc2ccco2)c(=O)c2cc(S(=O)(=O)N3CCC(C)CC3)ccc21,"inconclusive: 16.4 µM [cytotoxic, single point]",–
Cc1ccnc(SCCn2c(N3CCN(c4ccccc4)CC3)nc3c2c(=O)[nH]c(=O)n3C)n1,"inconclusive: 5.17 µM [rising, partial curve, poor fit]",–
COc1ccc(CCNCCC(c2ccccc2)c2ccccc2)cc1OC,–,inconclusive: -11.9%
Cc1cccc(NCc2ccc(O)c3ncccc23)c1C,"inconclusive: 23.1 µM [cytotoxic, single point]",–
O=C(NN=Cc1ccc(F)c(F)c1)c1ccc(NS(=O)(=O)c2cccs2)cc1,inactive,–
O=C1[C@H](Cc2ccccc2)NC/C=C\C[C@H](c2ccco2)N1Cc1ccccc1,"inconclusive: 20.6 µM [cytotoxic, single point]",–
CCOc1cc(CNCCCN2CCOCC2)ccc1OCC(=O)Nc1cccc2ccccc12,inactive,–
Cc1ccc(C(=O)O/N=C/c2c(N3CCOCC3)n(C)c3ccccc23)cc1,"inconclusive: 2.91 µM [cytotoxic, full curve]",–
Cc1c(Cl)cccc1NC(=O)Nc1cnccn1,active: 16.4 µM,–
COc1cccc(CNC(=O)c2ccc3c(Cl)c4c(nc3c2)CCCC4)c1,inactive,–

# Nothing new here: three of the compounds above.
Structure (SMILES),Potency,"activity change, negative = cytotoxic"
COc1ccc(CCNCCC(c2ccccc2)c2ccccc2)cc1OC,–,inconclusive: -11.9%
Cc1cccc(NCc2ccc(O)c3ncccc23)c1C,"inconclusive: 23.1 µM [cytotoxic, single point]",–
O=C(NN=Cc1ccc(F)c(F)c1)c1ccc(NS(=O)(=O)c2cccs2)cc1,inactive,–

# (cont.)

Structure (SMILES),Potency,"activity change, negative = cytotoxic"
COc1ccc(C(C)(O)c2nc(-c3cccs3)cs2)cc1 (stereo not drawn),"inconclusive: 29.1 µM [cytotoxic, single point]",–
S=Cc1nc2ccccc2[nH]1,"inconclusive: 8.2 µM [rising, partial curve]",–
O=C(OCc1ccco1)c1ccc2c(c1)N(Cc1ccc([N+](=O)[O-])cc1)C(=O)c1ccccc1S2,inactive,–
Cn1c(CC2C(=O)Nc3ccc(Br)cc32)nc2ccccc2c1=O (stereo not drawn),"inconclusive: 29.1 µM [cytotoxic, single point]",–
CCC(=O)N(CCc1ccc(OC)c(OC)c1)Cc1cc2ccc(C)cc2n2nnnc12,"inconclusive: 23.1 µM [rising, single point]",–
C=CCn1c(C)cc(C(=O)CSc2nc3ccccc3c(=O)[nH]2)c1C,"inconclusive: 20.6 µM [cytotoxic, partial curve, poor fit]",–
Cc1ccc(OCCNc2cc(N3CCN(CCO)CC3)ccc2[N+](=O)[O-])cc1C,"inconclusive: 29.1 µM [cytotoxic, single point]",–
OCC1OC(n2ccc3c(NO)ncnc32)C(O)C1O (stereo not drawn),active: 0.461 µM,–
Cc1ccccc1NC(=O)c1onc2c1CCCC2,"inconclusive: 29.1 µM [cytotoxic, single point]",–
CC1CCN(c2nn3c(=O)c(C(=O)NCCc4ccc(Cl)cc4)cnc3s2)CC1,inactive,–
O=[N+]([O-])c1ccc(Nc2ccccc2F)nc1,"inconclusive: 20.6 µM [cytotoxic, single point]",–
COc1cccc(C2=Cc3ccc(F)cc3C(CC(C)=O)N2c2ccc(-c3cncnc3)cc2)c1 (stereo not drawn),"inconclusive: 29.1 µM [cytotoxic, single point]",–
COC(=O)C1=C(C(=O)OC)[C@@H]2N(Cc3ccccc3)c3ccccc3[C@@]23C[C@@H](C(=O)OC)N(C(=O)c2ccc(Br)cc2)C3=N1,"inconclusive: 18.4 µM [cytotoxic, single point]",–
N/C(Cc1ccccc1Sc1ccccc1)=N\O,"inconclusive: 0.0046 µM [cytotoxic, full curve, poor fit]",–
CCN(CC)CCn1c(NCc2ccccn2)nc2ccccc21,inactive,–
Cc1ccccc1OCc1nc(-c2cccnc2)no1,"inconclusive: 0.291 µM [rising, full curve]",–
CCN(CC(=O)NCc1ccc(Cl)cc1)C(=O)CSCC(=O)Nc1cccc(C)c1,inactive,–
CSCCC(=O)N1CCC(n2nccc2NC(=O)c2ccc3c(c2)OCO3)CC1,"inconclusive: 8.2 µM [rising, partial curve, poor fit]",–
Cc1ccc(C(=O)NCC(=O)OCc2c(F)cccc2Cl)cc1,"inconclusive: 20.6 µM [rising, partial curve]",–
CCCOc1ccc(N2C(=O)CC(NNC(=O)c3ccc(COc4ccccc4)o3)C2=O)cc1 (stereo not drawn),"inconclusive: 14.6 µM [cytotoxic, single point]",–
C=CCn1c(-c2ccc(OC)cc2)csc1=Nc1c(C)n(C)n(-c2ccccc2)c1=O,active: 16.4 µM,–
COc1ccc(-c2cc(C(F)(F)F)n3nc(C(=O)Nc4ccc(Cl)cc4C(F)(F)F)cc3n2)cc1OC,"inconclusive: 13 µM [rising, partial curve]",–
CCCCCCn1cc(C(=O)O)c(=O)c2cc(F)c(N3CCN(C(=O)OCC)CC3)cc21,inactive,–

Structure (SMILES),Potency,"activity change, negative = cytotoxic"
CCCCc1c(-c2ccccc2OC)ncn1CCc1ccc(OC)cc1,"inconclusive: 25.9 µM [cytotoxic, single point]",–
COCCNc1nc(-c2ccc(OC)cc2C)c2sc(-c3ccccc3)cc2n1,"inconclusive: 25.9 µM [cytotoxic, single point]",–
Cc1ccc(C(C#N)c2ccc3c(C(F)(F)F)cc(C(F)(F)F)nc3n2)cc1 (stereo not drawn),"inconclusive: 18.4 µM [cytotoxic, single point]",–
Cn1ccc(=Nc2ccc(NC(=O)c3ccc(N=c4ccn(C)c5ccc([N+](=O)[O-])cc45)cc3)cc2)cc1,"inconclusive: 11.6 µM [cytotoxic, partial curve]",–
O=C(NCc1cccs1)c1nn2cccnc2c1Cl,"inconclusive: 0.411 µM [rising, partial curve, poor fit]",–
COc1ccc(-c2oc3ncnc(NCCCO)c3c2-c2ccc(OC)cc2)cc1,"inconclusive: 18.4 µM [cytotoxic, single point]",–
COc1cccc(Nc2nc(C(N)C3CCCCC3)cs2)n1 (stereo not drawn),inactive,–
CC(C)CN(CC(C)C)c1nnc(NC(=O)Nc2cccc(C(F)(F)F)c2)s1,"inconclusive: 23.1 µM [cytotoxic, single point]",–
CC(=O)NCCCc1ccc(C(=O)COC(=O)CNC(=O)c2ccc3ccccc3c2)cc1,"inconclusive: 20.6 µM [rising, partial curve, poor fit]",–
CCC(=O)Nc1nc2ccc3sc(C)nc3c2s1,"inconclusive: 29.1 µM [rising, single point]",–
O=C(Cn1cc(S(=O)(=O)Cc2cccc(F)c2)c2ccccc21)N1CCOCC1,"inconclusive: 25.9 µM [rising, single point]",–
CC(=C\c1ccco1)/C=C(\C#N)C(=O)NCCc1c[nH]c2ccccc12,inactive,–
Cc1cc(/C=C2\SC(=Nc3ccccc3)NC2=O)c(C)n1-c1ccc(S(N)(=O)=O)cc1,active: 4.11 µM,–
COc1ccc(OC2C(=O)N(CCc3ccc(OC)c(OC)c3)C2c2ccc3c(c2)OCO3)cc1 (stereo not drawn),inactive,–
CN(C)c1ccc(/C=N/NC(=O)c2ccccc2)cc1,"inconclusive: 29.1 µM [cytotoxic, single point]",–
Nc1nc(Nc2cccc(F)c2)nc(NCc2ccco2)c1[N+](=O)[O-],"inconclusive: 18.4 µM [cytotoxic, single point]",–
CC1(C)C(=O)Nc2ccccc2N1C(=O)Cn1ncc(Cl)c(Cl)c1=O,"inconclusive: 32.6 µM [cytotoxic, single point]",–
CC(=O)c1ccc(N=C2SCCCN2C(=O)C2CCCC2)cc1,"inconclusive: 7.31 µM [rising, partial curve]",–
CCOc1ccc(-c2nnc(-c3ccccc3)n2-c2ccccc2)cc1,inactive,–
CC1(C)Cc2c(C#N)c(N3CCN(C(=O)c4ccco4)CC3)nc(Cc3ccccc3)c2CO1,"inconclusive: 29.1 µM [cytotoxic, single point]",–
CC(CCC(=O)O)C1CC[C@H]2C3CCC4CC(=O)CCC4(C)[C@H]3CC(=O)C12C (stereo partly drawn),inactive,–
COc1ccc(-c2cc(C(F)(F)F)n3nc(C(=O)Nc4cccc(Cl)c4Cl)cc3n2)cc1OC,inactive,–

# — PubChem BioAssay AID1347075 (National Center for Advancing Translational Sciences (NCATS), 2019)
